These are yes or no findings as the source states them, for the method shown. In cells and extracts the contact can be indirect. Some binding calls cover weakened binding; strength is not graded here.

The chains behind the UniProt entries cited, without tags or fusion partners. Where a name states a change or a piece, a line headed by the entry shows the natural chain unless it says otherwise. Residues count along the entry.
UniProt O22476, residues 24-1196: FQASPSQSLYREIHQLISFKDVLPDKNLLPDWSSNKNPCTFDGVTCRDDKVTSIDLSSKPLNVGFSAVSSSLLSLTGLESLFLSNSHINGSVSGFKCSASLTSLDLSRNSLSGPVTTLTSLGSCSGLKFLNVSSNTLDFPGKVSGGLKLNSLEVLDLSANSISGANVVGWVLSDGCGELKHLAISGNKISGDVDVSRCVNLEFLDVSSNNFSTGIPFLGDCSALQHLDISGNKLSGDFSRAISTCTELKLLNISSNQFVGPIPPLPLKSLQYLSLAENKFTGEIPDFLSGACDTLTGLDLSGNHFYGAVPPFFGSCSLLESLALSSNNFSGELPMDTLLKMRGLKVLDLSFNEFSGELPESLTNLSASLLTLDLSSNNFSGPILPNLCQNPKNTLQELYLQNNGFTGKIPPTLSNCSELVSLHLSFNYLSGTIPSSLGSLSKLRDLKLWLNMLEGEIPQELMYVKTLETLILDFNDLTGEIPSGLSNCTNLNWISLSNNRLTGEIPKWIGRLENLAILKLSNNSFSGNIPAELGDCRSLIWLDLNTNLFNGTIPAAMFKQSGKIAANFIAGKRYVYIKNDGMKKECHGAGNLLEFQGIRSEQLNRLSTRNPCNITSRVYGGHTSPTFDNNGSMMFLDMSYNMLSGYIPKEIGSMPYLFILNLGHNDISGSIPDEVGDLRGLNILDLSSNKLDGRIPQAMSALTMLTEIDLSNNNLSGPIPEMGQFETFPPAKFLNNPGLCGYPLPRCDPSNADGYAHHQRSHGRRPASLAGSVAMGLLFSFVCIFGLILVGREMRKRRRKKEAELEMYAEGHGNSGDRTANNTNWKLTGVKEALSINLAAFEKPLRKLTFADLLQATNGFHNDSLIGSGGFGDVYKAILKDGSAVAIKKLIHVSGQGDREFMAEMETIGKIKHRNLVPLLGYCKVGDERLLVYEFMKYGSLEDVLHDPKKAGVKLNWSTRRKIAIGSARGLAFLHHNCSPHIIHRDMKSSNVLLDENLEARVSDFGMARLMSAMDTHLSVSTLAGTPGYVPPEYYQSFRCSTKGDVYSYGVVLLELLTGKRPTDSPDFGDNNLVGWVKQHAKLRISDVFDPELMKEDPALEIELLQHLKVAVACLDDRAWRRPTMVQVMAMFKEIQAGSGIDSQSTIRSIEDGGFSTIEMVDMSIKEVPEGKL
UniProt Q944A7: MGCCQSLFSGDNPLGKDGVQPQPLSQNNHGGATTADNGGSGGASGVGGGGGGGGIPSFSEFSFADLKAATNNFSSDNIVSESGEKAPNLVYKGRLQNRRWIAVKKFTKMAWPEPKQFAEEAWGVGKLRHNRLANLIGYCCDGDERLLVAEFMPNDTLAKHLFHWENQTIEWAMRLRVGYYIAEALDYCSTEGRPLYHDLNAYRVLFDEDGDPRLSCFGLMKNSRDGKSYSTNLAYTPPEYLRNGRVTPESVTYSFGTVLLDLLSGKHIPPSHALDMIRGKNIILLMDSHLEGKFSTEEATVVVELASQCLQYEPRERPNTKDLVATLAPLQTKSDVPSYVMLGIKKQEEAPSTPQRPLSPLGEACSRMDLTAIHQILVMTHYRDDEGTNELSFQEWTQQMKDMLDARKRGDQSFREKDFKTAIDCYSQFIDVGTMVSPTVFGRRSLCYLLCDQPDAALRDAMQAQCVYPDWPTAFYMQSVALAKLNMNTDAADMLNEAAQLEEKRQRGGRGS

Here are results for one substance from patent publication US20100043097A1.

The test deals with BRI1-GFP (Arabidopsis thaliana) (UniProt O22476). Kind of test: co-immunoprecipitation from microsomal proteins with anti-BRK1 antibodies, anti-GFP immunoblot (FIG. 9). On the technique in general: Immunoblotting shows a protein as a band on a membrane.

Regarding “BRK1 (BR-regulated kinase 1, At4g35230) (from UniProt Q944A7 2-512) (enzyme)”, the binding result is “binds”.
